Reference: PubChem BioAssay AID1794845 (National Center for Advancing Translational Sciences (NCATS), 2023)
Out of some 6,900 compounds screened, fewer than 10 were called active. The call rests on the fitted dose curve; in most records, active means well fitted curve in the direction sought with a large enough effect; inconclusive means small, poorly fitted or top-dose-only effect, or another doubt; inactive means no such curve, though single readings can be large or run the other way. This is one part of the list.

The chains behind the UniProt entries cited, without tags or fusion partners. Where a name states a change or a piece, a line headed by the entry shows the natural chain unless it says otherwise.
UniProt C7C422: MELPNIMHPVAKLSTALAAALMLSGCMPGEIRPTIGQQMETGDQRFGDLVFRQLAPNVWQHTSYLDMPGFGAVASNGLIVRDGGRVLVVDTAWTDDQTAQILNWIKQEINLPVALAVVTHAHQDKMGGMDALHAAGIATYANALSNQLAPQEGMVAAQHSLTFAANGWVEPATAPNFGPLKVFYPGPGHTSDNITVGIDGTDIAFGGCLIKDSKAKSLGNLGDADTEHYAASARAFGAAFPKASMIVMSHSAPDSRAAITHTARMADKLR

target: Metallo-beta-lactamase type 2 (Klebsiella pneumoniae) (UniProt C7C422); test: qHTS to identify inhibitors of the New Delhi Metallo-beta-lactamase (NDM): primary screen against the NCATS Gemini Collection; conditions: NDM-1 enzyme, meropenem hydrolysis, absorbance 300 nm; at 38.4 µM (top of the series) unless noted; further: % of control where 0% means no effect
Procedure, shortened: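 NDM-1 at 2 nM final in 50 mM HEPES pH 7.0, 1 uM ZnSO4, 0.01% Tween20, preincubated >30 min with compound. Meropenem 50 uM final added; absorbance at 300 nm after 30 min.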

Activity % (negative = inhibition), inactive:
CCCNC(=O)[C@@H]1Cc2cn(Cc3nccn3C)c3cccc(c23)[C@H](CC(C)C)N1 6.32% [at 57.5 µM], COC(=O)c1ccc2c(c1)nc1n2[C@@H](CNC(=O)CC(C)(C)C)COC1 0.173% [at 57.5 µM], Cc1noc(-c2ccco2)c1C(=O)NCc1cccc(Cl)c1 7.68%, CC(CN)(c1ccccn1)N1CCOCC1 (stereo unspecified) 3.09% [at 77.1 µM], O=C(Nc1ccccc1)c1cc2n(n1)CCN(C(=O)COc1ccccc1)C2 0.0882%, CCCCS(=O)(=O)N1CC(F)(F)C[C@H]1c1nnc(C)o1 0.592%, CC(NC1CCC2(CCNCC2)CC1)c1ccc(S(C)(=O)=O)cc1 (stereo unspecified) -8.6%, NC(=O)c1cc2c(nc1CCC1COc3ccccc3O1)CCC2 (stereo unspecified) -1.46%, COc1ccc(C(=O)N2C(C(=O)N3CCCC3)COC23CCN(C(=O)C2CCC2)CC3)cc1 (stereo unspecified) 20.8%, O=C(NC1CCN(c2cc(N3CCOCC3)cnn2)C1)C1CC1 (stereo unspecified) 49.2%, CCn1c(CO)nnc1C1CC(NC(=O)c2nn(C)c(C)c2Cl)C1 (stereo unspecified) -2.63%, COc1cccc(CN2CCCC3(CCN(c4cc(C)nc(N)n4)C3)C2)c1OC (stereo unspecified) 1.37%, C[C@H](C(=O)NCCN1CCOCC1)C1CC[C@@]2(C)Cc3sc(CS(=O)(=O)C(C)(C)C)nc3[C@@H](C)[C@@H]2[C@H]1O (stereo partly specified) -3.51%, Cc1nc(N2CCC(NC(=O)c3cccnc3)CC2)cc(C(F)(F)F)n1 14.3%, CNC(=O)[C@@H]1CN(S(=O)(=O)C(C)C)C[C@H]1c1n[nH]c(C)n1 0.0968%, CCn1nc(C)c(-c2cc(C(=O)N3CCC(CCOc4ccccc4OC)C3)no2)c1C (stereo unspecified) 3.67%, Cc1ncsc1C(=O)N1CC(CNC(=O)C2CC2)C2(C1)CN(c1ccccc1)C2 (stereo unspecified) -0.697% [at 57.5 µM], Cc1ccc2[nH]c(CCC(=O)N3CC[C@H](CO)[C@H](O)C3)nc2c1C 40.7%, COc1cccc(CCN(Cc2cccc(C)c2)C(=O)[C@H]2CCC[C@H](O)C2)c1 2.4%, O=C(Nc1nn(-c2cccc(F)c2)c2cccc(N3CCOCC3)c12)C1CCC1 2.65%, CCN1CCCN(S(=O)(=O)c2cccs2)CC12CCOCC2 0.121%, COc1ccc(NC(=O)N2CC(N(C3CCOCC3)S(C)(=O)=O)C2)cc1F 1.6%, COCC1CN(Cc2ccc(Br)s2)CC12CCNCC2 (stereo unspecified) -0.815%, CC(C)c1ccc(C(O)Cn2ccn3nc(-c4ccc(F)cc4)cc3c2=O)cc1 (stereo unspecified) -7.5%, O=C1N(C2CCCCC2)C[C@H]2CN(S(=O)(=O)c3ccccc3)CCN12 0.953% [at 57.5 µM], CC(=O)N1Cc2ccccc2CC2(CCN(Cc3ccc(O)cc3)CC2)C1 -0.861%, O=C(c1ccccn1)N1CCC2(CC(c3cccc(C(F)(F)F)c3)=NO2)C1 (stereo unspecified) -1.57%, CNC(=O)N1CCC(C2CCN(Cc3ccc(Br)o3)C2)CC1 (stereo unspecified) 0.431%, Cn1nccc1C(O)c1cc2n(n1)CCN(CC(=O)NCc1ccco1)C2 (stereo unspecified) 0.962%, COCCOC1CN(C2CCN(S(C)(=O)=O)CC2)C12CCCCC2 (stereo unspecified) 1.22%, O=C(NCc1ccco1)[C@@H]1Cc2nc[nH]c2CN1CCCc1ccccc1 -2.66% [at 57.5 µM], COc1cccc(-c2noc(-c3ccc(-c4cn[nH]c4)nc3)n2)c1OC 0.249%, COc1ccccc1-n1cnc2cccnc21 -7.86% [at 77.1 µM], CC(Cn1cncn1)Nc1ccc(-c2nc(Cc3ccc(F)cc3)no2)cn1 (stereo unspecified) 73.8%, O=C(NCc1ccc(F)cc1)c1cnc2n[nH]c(-c3ccccc3)c2n1 25.5% [at 57.5 µM], O=C(c1ccncc1)N1CCC(Nc2cccnc2)C1 (stereo unspecified) 4.62%, COCC(=O)N1CCC(C2CCN(C(=O)c3ccncc3)CC2)C1 (stereo unspecified) -0.46%, c1coc(-c2nnc([C@H]3CCN(Cc4c[nH]c5ccccc45)C3)o2)c1 37.1% [at 57.5 µM], CN1CCC(NC(=O)CC2(Cc3ccccc3)C(=O)N(C)c3ccccc32)CC1 (stereo unspecified) 28.8%, CSCCCN1CC[C@@H](NC(=O)c2ccncc2)[C@H](O)C1 8.59%, Cc1cc2ncc(C(=O)NCc3ccccc3Cl)cn2n1 -0.309% [at 57.5 µM], O=C(C1CC1)N1CCC(Cc2noc(-c3ccncc3)n2)C1 (stereo unspecified) 1.23%, c1cncc(-c2nnc3n2CCN(Cc2ccsc2)C3)c1 45.6% [at 57.5 µM], COc1ccc(C(=O)N2CC[C@H](c3nnc(-c4ccccc4)o3)C2)cc1 4.86% [at 57.5 µM], O=c1[nH]nc2n1CCN(CC1CCCCC1)CC2 5.08%, COCCOCc1nc(C2CCCN2C(=O)c2ccccn2)no1 (stereo unspecified) 10.5%, CN1CCN(c2cc(N3CCCC(CN4CCCCC4)C3)nc(N)n2)CC1 (stereo unspecified) -3.94%, COCCn1c(=O)n([C@H]2CCCN(C(=O)NCCc3ccccc3)C2)c2ncccc21 10%, CCc1nc(CN2CCC(N3CCCC(C(=O)NCc4ccccn4)C3)CC2)no1 (stereo unspecified) -0.828%, CN1CCC(N2CCC[C@H]2c2nc(-c3ccc(OC4CCCCC4)nc3)no2)CC1 1.94% [at 57.5 µM], Cc1cnc(CCNC(=O)c2n[nH]c(=O)c3ccccc23)n1C1CCCCC1 24.7%, O=C(NCCc1ccc(F)cc1)c1cc(-c2ccccc2)c2nncn2n1 18%, CCC(c1cnn(C)c1)n1ccnc1-c1cc(F)c(OC)c(Cl)c1 (stereo unspecified) 0.927%, O=C(N1CCCCCC1)C1(CCO)CCN(c2ncccn2)C1 (stereo unspecified) 3.73%, Cc1cc(=O)oc2cc(CN(C)CC(C)N3CCOCC3)ccc12 (stereo unspecified) 0.386%, O=C1N(c2ccccc2)c2ccccc2C12CCN([S+](=O)([O-])c1cccc(C(F)(F)F)c1)C2 (stereo unspecified) 0.178%
